# Reference: PubChem BioAssay AID504467 (National Center for Advancing Translational Sciences (NCATS), 2011)
# About 7,700 (2.3%) of roughly 330,000 compounds were called active. The inconclusive results got no clear call from the source; some entries with a clear call stand among them for comparison. Calls come from the whole dose curve; as a rule, active = well fitted inhibition curve with a large enough effect; inconclusive = small, poorly fitted or top-dose-only effect, or effect the other way; inactive = flat fitted curve, though single readings scatter. Potencies beside an inconclusive call are fits to weak or partial responses and may not hold up.
# Experiment: qHTS screen for small molecules that inhibit ELG1-dependent DNA repair in human embryonic kidney (HEK293T) cells expressing luciferase-tagged ELG1; note: nearly all actives have a fitted effect of over 55% in size
# Details: HEK293T ELG1-luciferase reporter, luminescence, 16 h, DNA damage induced by 5-fluorouridine; activity change, negative = inhibition: at 46.1 µM (top of the series)
# How it was run: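 5-Fluorouridine DNA damage + compound/DMSO, 2,000 cells/well, 16 h, 37 °C/5% CO2. ONE-Glo, 30 min RT, luminescence. Readout = decrease in reporter signal.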
# % is set by controls: 0 for no effect and ±100 for the full control effect; potency is the fitted concentration of half-maximal effect.
SMILES,Potency,"activity change, negative = inhibition"
C=CCn1c(SCC(=O)NCc2ccc3c(c2)OCO3)nnc1C1CCCCC1,"inconclusive: 7.94 µM [inhibitor, partial curve]",–
O=C(COc1ccc(C(=O)c2ccccc2)cc1)Nc1cccnc1,active: 1.03 µM,–
N#C/C(=C\c1ccc(-c2ccc(C(=O)O)cc2)o1)c1nc2ccccc2[nH]1,"inconclusive: 3.66 µM [activator, full curve]",–
O=C(Nc1nc2ccccc2s1)C1CCN(S(=O)(=O)c2cc([N+](=O)[O-])ccc2Cl)CC1,inactive,–
Cc1cc(O)c(C(=O)Nc2cccc(Cl)c2)c(=O)n1C,"inconclusive: 10.3 µM [activator, partial curve]",–
OCCC1CN(Cc2cccs2)CCN1Cc1ccccc1 (configuration not stated),inactive,–
COc1ccc(SC[C@H](Cc2ccccc2)N2CC[C@@H](C)CCC2=O)cc1,"inconclusive: 16.4 µM [inhibitor, partial curve, poor fit]",–
O=C(Nc1ccccc1F)N(Cc1ccc(F)cc1)Cc1nc2ccccc2c(=O)[nH]1,"inconclusive: 20.6 µM [activator, partial curve]",–
Clc1ccc(Cc2nn3c(Cn4nnc5ccccc54)nnc3s2)cc1,"inconclusive: 20.6 µM [inhibitor, single point]",–
CN(Cc1ccccc1)C(=O)c1ccc(NC(=O)Cc2cccc(NC(=O)C3CCN(C(=O)C4CC4)CC3)c2)cc1,"inconclusive: 9.2 µM [inhibitor, partial curve, poor fit]",–
O=c1c2cnn(-c3ccccc3)c2ncn1Cc1ccccn1,"inconclusive: 18.4 µM [inhibitor, single point]",–
COCCNc1nc(-c2cc(C)c(C)cc2C)cs1,"inconclusive: 20.6 µM [activator, partial curve]",–
O=C(CSc1ccc(F)cc1)NC1CCCCC1,"inconclusive: 25.9 µM [activator, single point]",–
CCOC(=O)c1ccc(NC(=O)c2nc[nH]c2C(=O)N[C@@H](CC(C)C)C(=O)OCc2ccccc2)cc1,inactive,–
CN(CC(=O)Nc1cccc(S(=O)(=O)N2CCCC2)c1)Cc1ccccc1,inactive,–
CCOc1cc(/C=C2/C(=O)N(c3ccccc3)N=C2C)ccc1OC(=O)c1ccco1,inactive,–
COc1ccc(OC)c(C(C(=O)NC2CCCCC2)N(C(=O)c2ccccn2)c2cccnc2)c1 (configuration not stated),inactive,–
S=C(NCC1CCCO1)Nc1cccc2ccccc12 (configuration not stated),inactive,–
Nc1cccc(-c2nc3ccc(N)cc3s2)c1,"inconclusive: 2.59 µM [activator, partial curve, poor fit]",–
Cc1ccc(-n2c(-c3ccccc3)c[n+]3c2CCc2ccccc2-3)c(C)c1,"inconclusive: 2.31 µM [inhibitor, full curve]",–
Cc1cc(C(=O)NNC(=S)NC(C)c2ccccc2)c2ccccc2n1 (configuration not stated),inactive,–
COc1ccc(OC)c(S(=O)(=O)Nc2cccc(F)c2)c1,inactive,–
Cc1nc2c3c(sc2c(=O)[nH]1)NC(=O)CC3c1ccccc1Cl (configuration not stated),"inconclusive: 14.6 µM [activator, partial curve]",–

SMILES,Potency,"activity change, negative = inhibition"
Cc1cc(=O)oc2cc(NC(=S)NNC(=O)c3c(Cl)cnn3C)ccc12,"inconclusive: 7.3 µM [activator, partial curve]",–
CCCCNC(=S)N(C)/N=C/c1c(C)[nH]c2ccccc12,inactive,–
CCOC(=O)CNC(=O)c1ccc(SCC)cc1,"inconclusive: 20.6 µM [activator, partial curve]",–
COc1ccc2oc(C(=O)OCC(=O)N3CCN(S(=O)(=O)c4ccc(C)cc4)CC3)c(C)c2c1,"inconclusive: 13 µM [inhibitor, partial curve, poor fit]",–
O=S(=O)(c1cccc(-c2cn3ccccc3n2)c1)N1CCCC1,"inconclusive: 29.1 µM [inhibitor, single point]",–
O=C(CCCOc1ccccc1)Nc1cccc(C(=O)O)c1,"inconclusive: 18.4 µM [activator, partial curve, poor fit]",–
COc1ccc(NC(=O)c2cccc(N3C(=O)C4C5C=CC(C6CC56)C4C3=O)c2)cc1 (configuration not stated),active: 23.1 µM,–
COc1ccc(OC)c(NS(=O)(=O)c2ccc(Br)s2)c1,"inconclusive: 25.9 µM [inhibitor, partial curve, poor fit]",–
CCOC(=O)c1csc(NC(=O)CCSc2ccccc2)n1,"inconclusive: 16.4 µM [inhibitor, single point]",–
C=CCNC(=S)N/N=C/c1cn(C)c2ccccc12,"inconclusive: 16.4 µM [inhibitor, single point]",–
CC1=Nc2ccccc2N=C(NC(=O)c2ccccc2)C1c1ccc(Cl)cc1 (configuration not stated),"inconclusive: 29.1 µM [inhibitor, single point]",–
CC(=O)N(Nc1ccccc1)c1ccccc1,inactive,–
Cc1cc[n+](CC(=O)c2cc3ccccc3oc2=O)cc1,"inconclusive: 13 µM [activator, partial curve]",–
Cn1c(N)c(C(=O)COC(=O)c2cccc(S(=O)(=O)N3CCCCC3)c2)c(=O)n(C)c1=O,"inconclusive: 18.4 µM [inhibitor, partial curve, poor fit]",–
COC(=O)c1ccc(NC(=S)NCCc2ccc(OC)cc2)cc1,"inconclusive: 25.9 µM [inhibitor, single point]",–
Cc1ccccc1NS(=O)(=O)c1ccc2[nH]cc(C(=O)NCCCN3CCOCC3)c(=O)c2c1,–,inconclusive: 37.5% [activator]
COc1ccc(OC)c(CCNC(=O)c2ccc3c(c2)N(Cc2ccc(F)cc2)CCS3)c1,"inconclusive: 29.1 µM [inhibitor, single point]",–
COC(c1ccccc1)c1nnc(CCC(=O)N(C)Cc2cccc(-n3cccn3)c2)o1 (configuration not stated),"inconclusive: 29.1 µM [activator, single point]",–
O=C(O)c1ccc(N=Nc2c(O)ccc3ncccc23)cc1,"inconclusive: 1.64 µM [activator, partial curve]",–
FC(F)(F)c1cc(CCN2CCNC[C@H]2Cc2cccc3ccccc23)cc(C(F)(F)F)c1,"inconclusive: 29.1 µM [inhibitor, single point]",–
COc1cc2c(cc1OC)CC(C(=O)NCc1ccccc1)NC2 (configuration not stated),inactive,–
O=C(COc1ccc(Cl)cc1Cl)N1CCCCCC1,"inconclusive: 23.1 µM [activator, single point]",–
CCn1c(C)nnc1SCC(=O)Nc1ccc2c(c1)OCCO2,"inconclusive: 20.6 µM [activator, single point]",–

# Some of the entries so far, bar-delimited:
SMILES | Potency | activity change, negative = inhibition
Cc1cc(=O)oc2cc(NC(=S)NNC(=O)c3c(Cl)cnn3C)ccc12 | inconclusive: 7.3 µM [activator, partial curve] | –
CCCCNC(=S)N(C)/N=C/c1c(C)[nH]c2ccccc12 | inactive | –
CCOC(=O)CNC(=O)c1ccc(SCC)cc1 | inconclusive: 20.6 µM [activator, partial curve] | –
COc1ccc2oc(C(=O)OCC(=O)N3CCN(S(=O)(=O)c4ccc(C)cc4)CC3)c(C)c2c1 | inconclusive: 13 µM [inhibitor, partial curve, poor fit] | –
O=C(CCCOc1ccccc1)Nc1cccc(C(=O)O)c1 | inconclusive: 18.4 µM [activator, partial curve, poor fit] | –
COc1ccc(OC)c(NS(=O)(=O)c2ccc(Br)s2)c1 | inconclusive: 25.9 µM [inhibitor, partial curve, poor fit] | –
CCOC(=O)c1csc(NC(=O)CCSc2ccccc2)n1 | inconclusive: 16.4 µM [inhibitor, single point] | –
C=CCNC(=S)N/N=C/c1cn(C)c2ccccc12 | inconclusive: 16.4 µM [inhibitor, single point] | –
CC(=O)N(Nc1ccccc1)c1ccccc1 | inactive | –
Cc1cc[n+](CC(=O)c2cc3ccccc3oc2=O)cc1 | inconclusive: 13 µM [activator, partial curve] | –
Cn1c(N)c(C(=O)COC(=O)c2cccc(S(=O)(=O)N3CCCCC3)c2)c(=O)n(C)c1=O | inconclusive: 18.4 µM [inhibitor, partial curve, poor fit] | –
COC(=O)c1ccc(NC(=S)NCCc2ccc(OC)cc2)cc1 | inconclusive: 25.9 µM [inhibitor, single point] | –
COc1ccc(OC)c(CCNC(=O)c2ccc3c(c2)N(Cc2ccc(F)cc2)CCS3)c1 | inconclusive: 29.1 µM [inhibitor, single point] | –
COC(c1ccccc1)c1nnc(CCC(=O)N(C)Cc2cccc(-n3cccn3)c2)o1 (configuration not stated) | inconclusive: 29.1 µM [activator, single point] | –
O=C(O)c1ccc(N=Nc2c(O)ccc3ncccc23)cc1 | inconclusive: 1.64 µM [activator, partial curve] | –
CCn1c(C)nnc1SCC(=O)Nc1ccc2c(c1)OCCO2 | inconclusive: 20.6 µM [activator, single point] | –

# Following part:

SMILES,Potency,"activity change, negative = inhibition"
COc1cccc(C(=O)N(Cc2nc(-c3ccc(C)cc3)no2)C(C)C)c1,inactive,–
CC1CC(=O)N(C)c2cc([N+](=O)[O-])ccc2N1 (configuration not stated),"inconclusive: 29.1 µM [activator, single point]",–
COc1cnc(SCc2ccc(Cl)cc2Cl)nc1Cl,inactive,–
CCC1=C(OC(=O)N(CC)CC)N2C(=O)OC(=NCCc3c[nH]c4ccccc34)[C@]2(Cc2ccccc2)[C@H]2C1=CC[C@H]1C(=O)N(C)C(=O)[C@H]12,inactive,–
COc1c(C(=O)NCCSC(C)(C)C)ccc2ccccc12,"inconclusive: 14.6 µM [activator, single point]",–
C=C(C)C(=O)N1CC2(CC(c3cccc(NC(=O)/C=C\C=C/C)c3)=NO2)C[C@H]1C(N)=O (some centres not stated),"inconclusive: 20.6 µM [activator, partial curve, poor fit]",–
O=C(NNc1ccccn1)C(=O)NNS(=O)(=O)c1ccc(F)cc1,active: 20.6 µM,–
CCN(C(=O)CN1C(=O)c2ccc([N+](=O)[O-])cc2C1=O)C1CCCCC1,"inconclusive: 29.1 µM [inhibitor, partial curve, poor fit]",–
C=CCN(c1ccccc1)S(=O)(=O)c1ccc2c(c1)N(C(C)=O)CCO2,inactive,–
COc1ccc(CCc2nc(-c3cccs3)no2)cc1,"inconclusive: 11.2 µM [activator, partial curve, poor fit]",–
C(=C\c1ccccn1)/c1ccccn1,"inconclusive: 18.3 µM [activator, partial curve]",–
O=C(CSc1nc2ccccc2o1)Nc1nc2ccccc2s1,"inconclusive: 29.1 µM [activator, single point]",–
COc1ccc(-n2nnnc2-c2ccc(S(C)(=O)=O)cc2Cl)cc1,"inconclusive: 16.4 µM [inhibitor, partial curve, poor fit]",–
CCN(CC(=O)Nc1ccc(NC(C)=O)cc1)C(=O)/C=C/c1cn(Cc2ccccc2)nc1-c1cccnc1,"inconclusive: 5.8 µM [inhibitor, single point]",–
CC1(C)CC(=O)C2=C(C1)Nc1ccccc1NC2c1nc2ccccc2[nH]1 (configuration not stated),"inconclusive: 29.1 µM [activator, single point]",–
O=C1c2ccccc2C(=O)N1CCCCN(C(=O)c1cc([N+](=O)[O-])ccc1Cl)c1ccc(Cl)cc1,active: 20.6 µM,–
CCOc1ccccc1N1CCN(C(=O)C2=CC=CN3CCS(=O)(=O)N=C23)CC1,inactive,–
CC(Oc1ccc2c3c(c(=O)oc2c1)CCCC3)C(=O)NCc1ccncc1 (configuration not stated),"inconclusive: 16.4 µM [inhibitor, single point]",–
COc1cc(O)c2c(=O)c3c(O)ccc(O)c3oc2c1,"inconclusive: 11.6 µM [inhibitor, partial curve]",–
N#C/C(=C/c1ccc(Cl)cc1)NC(=O)c1ccccc1,"inconclusive: 18.4 µM [activator, single point]",–
CN(CC(=O)Nc1cccc(F)c1)CC(=O)Nc1cccc(S(=O)(=O)N2CCCCC2)c1,"inconclusive: 17.8 µM [inhibitor, single point]",–
